PubChem BioAssay AID1224830 | NIAID, 2016
Shown is a random part of about 18,000 reagents tested. About 2,900 of them (16%) were called active. 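Calls are made per well; low scores hint the gene aids the LPS response, high scores that it dampens it.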 A number with no mark means an inactive call. Repeated entries: four replicate wells of each siRNA pool.

- Test: 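Regulators of TLR4 signalling towards TNF-alpha in macrophage-like cells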 (primary screen)
- System: human THP-1 monocytic leukaemia cells, TNF dual-luciferase reporter clone, PMA-differentiated to macrophage-like cells
- Knock-down reagent: siRNA pool against human genes, 50 nM
- Duration: LPS for 4 h, given about 3 days after siRNA transfection
- Conditions: bacterial LPS (TLR4 ligand), 10 ng/ml
- Measurement: 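TNF firefly reporter luminescence divided by renilla, normalised to the plate median, then turned into a robust z-score for each replicate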
- Reading the numbers: TNF reporter robust z-score: higher = stronger TNF reporter response to LPS
- Hit rule: 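Each well counts as active if its z-score is over 2.8 or under -1.5; controls are left without a call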

Gene	PubChem SID	TNF reporter robust z-score
CT47A6	SID315465180	1.09
CT47A6	SID315465180	0.42
CT47A6	SID315465180	-0.39
CT47A6	SID315465180	1.61
RAB7A	SID315452337	-0.64
RAB7A	SID315452337	-0.38
RAB7A	SID315452337	-0.45
RAB7A	SID315452337	-0.08
MTCH1	SID315455433	-0.13
MTCH1	SID315455433	-0.49
MTCH1	SID315455433	-0.26
MTCH1	SID315455433	0.64
KCNK9	SID315456630	0.34
KCNK9	SID315456630	0.71
KCNK9	SID315456630	-0.09
KCNK9	SID315456630	-0.88
PRSS50	SID315456158	-0.15
PRSS50	SID315456158	-0.32
PRSS50	SID315456158	-0.46
PRSS50	SID315456158	-0.58
EHHADH	SID315448466	0.65
EHHADH	SID315448466	0.93
EHHADH	SID315448466	0.96
EHHADH	SID315448466	1.57
RUVBL1	SID315452682	0.78
RUVBL1	SID315452682	3.71 (active)
RUVBL1	SID315452682	2.18
RUVBL1	SID315452682	1.48
RAB35	SID315454540	-0.7
RAB35	SID315454540	-0.56
RAB35	SID315454540	-1.36
RAB35	SID315454540	-0.93
CHST13	SID315462834	1.12
CHST13	SID315462834	1.09
CHST13	SID315462834	0.1
CHST13	SID315462834	1.46
PIWIL1	SID315453168	-0.58
PIWIL1	SID315453168	-1.34
PIWIL1	SID315453168	-2.18 (active)
PIWIL1	SID315453168	-1.77 (active)
FCHSD1	SID315460745	2.66
FCHSD1	SID315460745	1.96
FCHSD1	SID315460745	-0.34
FCHSD1	SID315460745	0.87
TNFRSF8	SID315447779	0.88
TNFRSF8	SID315447779	-1.67 (active)
TNFRSF8	SID315447779	-1.68 (active)
TNFRSF8	SID315447779	1.07
